Measurements from publication PMC4808027.
Results are given in words; binding and its absence hold for the method and conditions named. For some assays here: In cells and extracts the contact can be indirect. Some binding calls cover weakened binding; strength is not graded here.

Chains of the proteins cited; added tags and fusions are not shown.
UniProt P11413: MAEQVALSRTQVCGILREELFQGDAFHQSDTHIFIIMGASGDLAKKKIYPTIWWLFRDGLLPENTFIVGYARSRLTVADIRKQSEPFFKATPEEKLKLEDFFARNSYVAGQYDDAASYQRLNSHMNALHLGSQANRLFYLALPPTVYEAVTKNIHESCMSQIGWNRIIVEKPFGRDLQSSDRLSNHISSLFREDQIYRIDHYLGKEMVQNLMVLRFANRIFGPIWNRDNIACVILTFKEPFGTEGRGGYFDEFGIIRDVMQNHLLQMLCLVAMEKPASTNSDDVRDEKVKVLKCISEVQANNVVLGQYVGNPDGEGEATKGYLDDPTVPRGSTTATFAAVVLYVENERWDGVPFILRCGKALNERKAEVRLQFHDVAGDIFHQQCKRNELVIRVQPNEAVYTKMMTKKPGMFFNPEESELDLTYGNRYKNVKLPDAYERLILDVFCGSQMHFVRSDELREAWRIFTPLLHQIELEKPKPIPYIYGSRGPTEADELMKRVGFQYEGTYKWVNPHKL
UniProt O95817: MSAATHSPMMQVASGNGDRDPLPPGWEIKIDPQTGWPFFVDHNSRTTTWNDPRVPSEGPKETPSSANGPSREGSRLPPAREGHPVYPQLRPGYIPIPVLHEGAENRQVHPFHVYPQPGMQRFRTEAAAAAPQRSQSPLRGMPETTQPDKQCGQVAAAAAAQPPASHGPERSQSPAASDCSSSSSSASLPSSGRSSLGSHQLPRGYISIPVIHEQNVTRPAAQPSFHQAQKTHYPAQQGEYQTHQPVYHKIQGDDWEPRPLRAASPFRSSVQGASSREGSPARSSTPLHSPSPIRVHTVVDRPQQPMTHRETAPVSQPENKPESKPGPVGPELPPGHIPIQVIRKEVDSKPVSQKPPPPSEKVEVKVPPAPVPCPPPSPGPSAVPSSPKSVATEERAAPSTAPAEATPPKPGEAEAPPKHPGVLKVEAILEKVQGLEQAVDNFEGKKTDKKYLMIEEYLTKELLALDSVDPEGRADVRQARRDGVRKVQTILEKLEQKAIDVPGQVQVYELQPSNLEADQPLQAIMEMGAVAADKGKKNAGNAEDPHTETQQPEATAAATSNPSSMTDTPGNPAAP

Legend:
[1] = target: G6PD, endogenous in HCC cells (human (endogenous in Bel-7402, HepG2, SMMC-7721)) (UniProt P11413); assay: proximity ligation; Duolink in situ PLA of endogenous BAG3 and G6PD in Bel-7402, HepG2 and SMMC-7721 cells; in Bel-7402 also with 10 μM uridine and 10 μM hypoxathine for 8 h (interaction unaltered)
[2] = target: G6PD with HA or Myc epitope tag (UniProt P11413); assay: co-IP; empty or BAG3-transduced HCCs co-transfected with HA-tagged and Myc-tagged G6PD; immunoprecipitation with anti-Myc antibody
[3] = target: G6PD, endogenous in HCC cells (human (endogenous in Bel-7402, HepG2, SMMC-7721)) (UniProt P11413); assay: native gel or EMSA; total proteins of HCCs infected with retrovirus containing empty or BAG3 construct, separated by native-PAGE, western blot for G6PD
[4] = target: GST-G6PD recombinant protein (UniProt P11413); assay: pull-down; purified His-BAG3 incubated with GST-G6PD or GST immobilized on beads, western blot; also with increasing amounts of NADP+ (0, 0.1 and 1 mM), which suppressed the interaction in a dose-dependent manner; both purified
Flag-tagged G6PD = Flag-tagged G6PD (UniProt P11413); assay: co-IP; HEK293 cells co-transfected with Myc-BAG3 and Flag-G6PD; reciprocal immunoprecipitation with Myc or Flag antibody and protein A-Sepharose, overnight at 4°C; lysis buffer 20 mM Tris-HCl, 150 mM NaCl, 2 mM EDTA, 1% Triton-X100

BAG3, endogenous in HCC cells (from UniProt O95817 1-575)
binding [1]: binds

G6PD with HA or Myc epitope tag (from UniProt P11413 1-515) (enzyme)
binding [2]: binds

G6PD, endogenous in HCC cells (from UniProt P11413 1-515) (enzyme)
binding [3]: binds

His-BAG3 recombinant protein (from UniProt O95817 1-575)
binding [4]: binds

Myc-tagged BAG3 (from UniProt O95817 1-575)
binding (Flag-tagged G6PD): binds
